Screen size: about 59,000 compounds; about 35 (0.06%) were called active. Inconclusive results, whose numbers are uncertain, are shown with a selection of clear calls. Rule as the data show it: active = max dye-equivalent concentration above about 10 nM; inconclusive = between about 1.1 nM and that limit; inactive = weaker than that.
test: qHTS Assay for Spectroscopic Profiling in Texas Red Spectral Region; conditions: Compound fluorescence, Texas Red channel, 547/618 nm; hits give high values
In short: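 Dye-equivalent concentrations come from scaling compound signal (ex 547, em 618 nm) to six Texas Red standard concentrations run on every plate, after 15 min room-temperature incubation in pH 8.0 Tris (100 mM).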

Compound | max dye-equivalent concentration
COCCn1c(SC(C)C(=O)Nc2ccc3c(c2)OCCO3)nc2ccccc2c1=O (stereo not given) | inconclusive: 1.5 nM
[O-][n+]1c(CN2CCCCC2)nc2cccc3c2c1-c1ccccc1-3 | inactive
Cc1ccc2c(c1)C1C=CCC1C(C(=O)O)N2 (stereo not given) | inconclusive: 1.7 nM
COc1ccccc1/C=c1\sc2nc(-c3cccs3)nn2c1=O | inactive
COc1ccccc1-c1ccc2ncnc(Nc3ccccc3)c2c1 | inactive
N=C(N)c1ccc(/C=C\c2ccc(C(=N)N)cc2)cc1 | inactive
COCCn1c(CN2CCC(Cc3ccccc3)CC2)nc2c1c(=O)n(C)c(=O)n2C | inconclusive: 3.4 nM
Cc1ccc(N(CC(=O)N2CCc3ccccc32)C2=NC(=O)CS2)cc1 | inconclusive: 1.1 nM
NC(N)=NNC(=O)C(=O)O | inactive
Cc1cc(Nc2ccc(Cl)cc2)n2nnnc2n1 | inconclusive: 1.2 nM
CNC(=O)c1cc2c(cn1)[nH]c1ccccc12 | inconclusive: 1.1 nM
Cc1cc(=O)oc2cc(O)ccc12 | inconclusive: 1.3 nM
O=C(CSc1nc2ccccc2o1)NC(=O)NCc1ccco1 | inconclusive: 1.3 nM
CCn1nc(NC(=O)c2ccncc2)c2cc3cc(C)ccc3nc21 | inconclusive: 1.1 nM
Cc1cccc(N2CCN(c3nnnn3-c3ccccc3)CC2C)c1 (stereo not given) | inconclusive: 1.2 nM
CCCn1c(N2CCN(CC(=O)NCc3cccs3)CC2)nc2ccccc21 | inconclusive: 1.6 nM
Cc1ccc(C)c(NC(=O)CSc2nnc(-c3ccncc3)n2N)c1 | inconclusive: 1.1 nM
CCN1/C(=C\C(C)=O)Sc2ccc(OC)cc21 | inconclusive: 1.4 nM
COn1c(SCc2cccnc2)nc2ccccc2c1=O | inconclusive: 1.5 nM
COC(=O)c1c(N)n(-c2ccc(NC(C)=O)cc2)c2nc3ccccc3nc12 | inconclusive: 1.1 nM
O=C(CSc1ncn[nH]1)NCCCc1ccccc1 | inconclusive: 1.4 nM
Oc1ccc(C(c2nnnn2C2CCCC2)N2CCc3ccccc3C2)cc1 (stereo not given) | inconclusive: 1.2 nM
COC(=O)c1oc2ccc(Br)cc2c1NC(=O)CN1CCN(C)CC1 | inconclusive: 1.1 nM

Compound | max dye-equivalent concentration
CCc1c(C(=O)Nc2ccc(S(=O)(=O)N3CCOCC3)cc2)csc1C | inconclusive: 1.3 nM
O=C(O)CCN1Cc2ccccc2C1=O | inconclusive: 3.3 nM
CCC(=O)N1CCN(C(=O)c2ccccc2)CC1 | inconclusive: 1.2 nM
O=C(CCn1nc(-c2ccc(Cl)cc2)ccc1=O)N1CCOCC1 | inconclusive: 1.6 nM
O[C@@H](c1cc([C@@]23C[C@H]4CC[C@@H]2C[C@H](C4)C3)nc2c(Cl)cc(Cl)cc12)[C@@H]1CCCCN1 | inconclusive: 2.1 nM
CCOc1cc(C(=O)OCc2ccc(C(=O)OC)o2)cc(Br)c1OC | inconclusive: 1.3 nM
O=C(NCc1ccco1)C(C(=O)c1ccc(F)cc1)n1ccccc1=O (stereo not given) | inconclusive: 3 nM
O=C(NCCSCc1ccccc1)c1cc(S(=O)(=O)N2CCOCC2)ccc1F | inconclusive: 1.7 nM
N#CC1=C(N)C2=C(N3CCCCC3)CCCC2C1(C#N)C#N (stereo not given) | inconclusive: 2 nM
CCn1c(=O)c(=O)[nH]c2cc(C(=O)N3CCN(c4ccccc4F)CC3)ccc21 | inconclusive: 1.8 nM
O=C(Nc1ccc2[nH]c3c(c2c1)CCCC3)c1ccco1 | inconclusive: 1.3 nM
Cc1cc2n(n1)C(c1ccco1)Nc1ccccc1-2 (stereo not given) | inconclusive: 1.1 nM
CCc1ccc(C(=O)N2CCCC2)s1 | inconclusive: 1.2 nM
Oc1cc(O)cc(/C=C\c2ccc(O)c(O)c2)c1 | inactive
COc1ccc(Br)cc1C(=O)O | inconclusive: 1.1 nM
COCCSc1ccccc1C(=O)N1CCN(Cc2ccc3c(c2)OCO3)CC1 | inconclusive: 1.6 nM
CCSC(=N)N | inconclusive: 1.6 nM
C=CCn1c(SCC(=O)c2cc(C)n(CC3CCCO3)c2C)nnc1-c1ccccc1 (stereo not given) | inconclusive: 2 nM
CCC1(C(=O)OC)NC(c2ccco2)C2C(=O)N(c3ccccc3)C(=O)C21 (stereo not given) | inconclusive: 2 nM
CCCc1cc(=O)n2[nH]c(NCc3cccs3)nc2n1 | inconclusive: 1.5 nM
Cc1cc(S(=O)(=O)NC2CCCCC2)ccc1OCC(=O)NCc1ccccn1 | inconclusive: 1.2 nM
CCOC(=O)C1[C@H]2C(=O)N(C(C)c3ccc(OC)cc3)C[C@]23C=C[C@H]1O3 (stereo not given in full) | inconclusive: 1.1 nM
CC(=O)c1cccc(NC(=O)NCc2ccco2)c1 | inconclusive: 1.2 nM

Compound | max dye-equivalent concentration
CC(=O)Oc1ccc2oc(=O)c3c(c2c1)CCCN3C(=O)CN1CCN(c2ncccn2)CC1 | inconclusive: 1.5 nM
COc1cc(C(C)=O)ccc1OCC(O)CN1CCN(S(=O)(=O)c2ccccc2)CC1 (stereo not given) | inconclusive: 2.2 nM
CCOC(=O)c1c(CN2CCOCC2)n(-c2ccccc2)c2ccc(O)cc12 | inconclusive: 1.7 nM
CCOC(=O)CSc1nc2c(c(=O)[nH]c(=O)n2C)n1C/C=C(/C)Cl | inconclusive: 1.6 nM
Cc1ccc(C(=O)O)cc1S(=O)(=O)N1CCOCC1 | inconclusive: 1.1 nM
COc1ccc(N(CC(=O)Nc2ccc(C)cn2)S(=O)(=O)c2c(C)noc2C)cc1 | inconclusive: 1.5 nM
CCC(C)NC(=O)c1ccc(NC(=O)C2CCCO2)cc1 (stereo not given) | inactive
CC1C(C#N)=C(N)OC2=C1C(=O)CCC2 (stereo not given) | inconclusive: 1.9 nM
CCOC(=O)C(Cc1cc(C(C)=O)ccc1OC(C)C)C(=O)OCC | inconclusive: 1.1 nM
Cc1oc(-c2ccc(Cl)cc2)nc1CN1CCC(C(=O)NCCCN2CCOCC2)CC1 | inconclusive: 1.6 nM
O=C(CCCCCNc1nc(=S)[nH]c2ccccc12)N1CCN(c2ccccn2)CC1 | inconclusive: 1.7 nM
COCCn1cc(C(=O)c2ccccc2OCC(=O)Nc2cc(C)on2)cc(C#N)c1=O | inconclusive: 1.2 nM
Cc1ccc(-c2nn3c(=O)c(C)nnc3s2)cc1 | inconclusive: 1.9 nM
CCCCn1c(SCC(=O)c2ccc(OC)cc2OC)nc2cc(S(N)(=O)=O)ccc21 | inconclusive: 1.4 nM
Cc1cc(OC(=O)c2ccc(S(=O)(=O)N(C)C)cc2)cc(=O)o1 | inconclusive: 1.2 nM
CC(=O)NC1CC2CCCC(C1)N2S(=O)(=O)c1ccccc1 (stereo not given) | inconclusive: 1.2 nM
Cc1cc2cc(OCC(=O)O)ccc2n1C | inconclusive: 1.6 nM
COc1ccc(CCNC2CCN(C)CC2)cc1OC | inconclusive: 1.2 nM
CCOc1ccc2cc(C#N)c(SCC(=O)N3CCC(C)CC3)nc2c1 | inconclusive: 1.4 nM
CC(C)(C)c1ccc(OCC(=O)O)c(Cl)c1 | inactive
COC(=O)c1cc(=O)nc2sccn12 | inconclusive: 1.1 nM
COc1ccc(-c2csc(NC(C)=O)n2)cc1OC | inconclusive: 1.5 nM
CCCCn1c2c(c(=O)n(C)c1=O)C(c1ccc(OC)cc1)N1CCCCCC1=N2 (stereo not given) | inconclusive: 1.1 nM

Compound | max dye-equivalent concentration
Cc1cc(=O)[nH]c(SCC(N)=O)c1C#N | inconclusive: 1.1 nM
CCOc1ccc2nc(NC(=O)CN3CCN(c4ccccn4)CC3)sc2c1 | inconclusive: 1.1 nM
CC1(C)Oc2ccc(C(=O)NC3CCCC3)cc2N(CC(=O)NC2CCCC2)C1=O | inconclusive: 1.7 nM
C=CCN=C(NC#N)SCC(=O)c1cccc(OC)c1 | inconclusive: 1.3 nM
COCCSc1nnc(NC(=O)COC)s1 | inconclusive: 1.4 nM
O=C(Cn1nnc(-c2ccc(Cl)cc2)n1)NC1CC2CCC1C2 (stereo not given) | inconclusive: 1.8 nM
CCN(CC)S(=O)(=O)c1ccc(-c2nnc(SCC(=O)c3ccc(OC)cc3)o2)cc1 | inconclusive: 1.7 nM
Cc1nc2nc(COc3ccccc3)[nH]n2c(=O)c1C | inactive
COc1ccccc1NC(=O)C1=C(C)Nc2nnnn2C1c1cc(Br)ccc1OC (stereo not given) | inconclusive: 1.3 nM
CCN1CCN(c2nc3c(c(=O)n(C)c(=O)n3C)n2CCSc2nccc(C)n2)CC1 | inconclusive: 1.6 nM
O=c1nc(N2CCCCC2)nc2n1CCO2 | inconclusive: 1.4 nM
FC(F)(F)c1ccccc1-c1ccc2ncnc(NCc3cccnc3)c2c1 | inactive
CCCN1CC=C2C(C#N)=C(N)C(C#N)(C#N)C(c3cccc(OC)c3OC)C2C1 (stereo not given) | inactive
O=c1c(-c2ccc(F)c(F)c2)nc2cncnc2n1Cc1ccccc1 | inactive
CCOc1ccc2nc(NC(=O)C3CCCN(S(=O)(=O)c4cccs4)C3)sc2c1 (stereo not given) | inconclusive: 1.8 nM
O=[n+]1c2c(n([O-])c3cc(F)ccc31)CCCC2 | inactive
COC(=O)c1cccc(N2C(=O)c3cccnc3C2=O)c1 | inconclusive: 1.2 nM
NC(=O)C1CCN(C(=O)N2c3ccccc3Sc3ccccc32)CC1 | inconclusive: 1.5 nM
CCOc1cccc2c1OC1(C)CC2NC(=O)N1c1cccc(Cl)c1 (stereo not given) | inconclusive: 1.5 nM
COc1ccc(-c2cc(C(F)(F)F)nc(SCC(=O)N3CC(C)OC(C)C3)n2)cc1OC (stereo not given) | inconclusive: 1.1 nM
CC(=O)c1c(C)[nH]c(C(=O)CSc2nnc(C3CCCCC3)n2N)c1C | inconclusive: 1.1 nM

Arranged by SMILES length (falling): five of the compounds above.
Compound | max dye-equivalent concentration
CCN(CC)S(=O)(=O)c1ccc(-c2nnc(SCC(=O)c3ccc(OC)cc3)o2)cc1 | inconclusive: 1.7 nM
CCOc1ccc2nc(NC(=O)CN3CCN(c4ccccn4)CC3)sc2c1 | inconclusive: 1.1 nM
C=CCN=C(NC#N)SCC(=O)c1cccc(OC)c1 | inconclusive: 1.3 nM
Cc1cc(=O)[nH]c(SCC(N)=O)c1C#N | inconclusive: 1.1 nM
COCCSc1nnc(NC(=O)COC)s1 | inconclusive: 1.4 nM

From PubChem BioAssay AID587 (National Center for Advancing Translational Sciences (NCATS), 2007)
